Results are given in words; binding and its absence hold for the method and conditions named. Binding seen in cells or lysates may run through a third protein. A yes stands for co-enrichment or nearness to the bait. Other partners may have been found.

Chains of the proteins cited; added tags and fusions are not shown.
UniProt P0CX44: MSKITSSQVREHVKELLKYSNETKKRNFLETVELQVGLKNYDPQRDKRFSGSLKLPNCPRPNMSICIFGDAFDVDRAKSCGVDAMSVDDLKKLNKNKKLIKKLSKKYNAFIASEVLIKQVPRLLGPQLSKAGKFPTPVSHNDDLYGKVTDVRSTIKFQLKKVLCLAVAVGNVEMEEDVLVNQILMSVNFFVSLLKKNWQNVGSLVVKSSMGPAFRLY
UniProt P14126: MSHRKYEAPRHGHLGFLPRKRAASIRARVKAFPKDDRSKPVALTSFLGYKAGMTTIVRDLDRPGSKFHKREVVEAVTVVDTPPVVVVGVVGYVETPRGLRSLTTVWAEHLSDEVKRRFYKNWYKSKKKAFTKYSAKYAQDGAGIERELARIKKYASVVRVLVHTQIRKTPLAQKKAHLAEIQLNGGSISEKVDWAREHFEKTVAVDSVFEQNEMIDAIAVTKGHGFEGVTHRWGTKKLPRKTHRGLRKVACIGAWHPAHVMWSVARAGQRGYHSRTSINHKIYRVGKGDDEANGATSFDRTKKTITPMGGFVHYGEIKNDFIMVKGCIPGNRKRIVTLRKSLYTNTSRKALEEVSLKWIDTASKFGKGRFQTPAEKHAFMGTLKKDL

This passage reports binding results from paper PMC13034042.

To fix the notation:
T1: Bcl1-TurboID (S. cerevisiae) (UniProt P53962)
T1 sequence: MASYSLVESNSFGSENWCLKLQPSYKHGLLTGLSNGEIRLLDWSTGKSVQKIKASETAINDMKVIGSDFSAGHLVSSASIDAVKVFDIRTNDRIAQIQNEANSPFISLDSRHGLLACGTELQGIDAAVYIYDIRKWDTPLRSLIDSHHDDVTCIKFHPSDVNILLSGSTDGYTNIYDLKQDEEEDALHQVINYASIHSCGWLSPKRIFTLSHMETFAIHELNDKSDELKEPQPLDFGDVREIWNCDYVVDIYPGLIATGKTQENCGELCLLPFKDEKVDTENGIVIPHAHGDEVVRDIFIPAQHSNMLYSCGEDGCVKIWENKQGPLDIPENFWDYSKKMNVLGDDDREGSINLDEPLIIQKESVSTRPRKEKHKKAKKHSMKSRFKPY

B1: Erb1 (endogenous) (protein, UniProt Q04660 1-807)
chain: MMAKNNKTTEAKMSKKRAASEESDVEEDEDKLLSVDGLIDAEASESDEDDDEYESAVEEKESSSDKEAQDDSDDDSDAELNKLLAEEEGDGEEDYDSSEFSDDTTSLTDRLSGVKLQTIVDPNIYSKYADGSDRIIKPEINPVYDSDDSDAETQNTIGNIPLSAYDEMPHIGYDINGKRIMRPAKGSALDQLLDSIELPEGWTGLLDKNSGSSLNLTKEELELISKIQRNEQTDDSINPYEPLIDWFTRHEEVMPLTAVPEPKRRFVPSKNEAKRVMKIVRAIREGRIIPPKKLKEMKEKEKIENYQYDLWGDSTETNDHVMHLRAPKLPPPTNEESYNPPEEYLLSPEEKEAWENTEYSERERNFIPQKYSALRKVPGYGESIRERFERSLDLYLAPRVRKNKLNIDPNSLIPELPSPKDLRPFPIRCSTIYAGHKGKVRTLSIDPSGLWLATGSDDGTVRVWEILTGREVYRTTLIDDEENPDYHIECIEWNPDANNGILAVAVGENIHLIVPPIFGYDIENNGKTKIEDGFGYDTFGTVKKSNLEVNENGDGDEDGENESAKNAVKKQVAQWNKPSQKQLEKDICITISCKKTVKKLSWHRKGDYFVTVQPDSGNTSVLIHQVSKHLTQSPFKKSKGIIMDAKFHPFKPQLFVCSQRYVRIYDLSQQILVKKLLPGARWLSKIDIHPRGDNLIASSFDKRVLWHDLDLASTPYKTLRYHEKAVRSVNFHKKLPLFSSAADDGTIHVFHATVYDDMMKNPMIVPLKKLTGHKVINSLGVLDAIWHPREAWLFSAGADNTARLWTT
B2: Ebp2 (endogenous) (protein, UniProt P36049 1-427)
chain: MAKGFKLKELLSHQKEIEKAEKLENDLKKKKSQELKKEEPTIVTASNLKKLEKKEKKADVKKEVAADTEEYQSQALSKKEKRKLKKELKKMQEQDATEAQKHMSGDEDESGDDREEEEEEEEEEEGRLDLEKLAKSDSESEDDSESENDSEEDEDVVAKEESEEKEEQEEEQDVPLSDVEFDSDADVVPHHKLTVNNTKAMKHALERVQLPWKKHSFQEHQSVTSETNTDEHIKDIYDDTERELAFYKQSLDAVLVARDELKRLKVPFKRPLDYFAEMVKSDEHMDKIKGKLIEEASDKKAREEARRQRQLKKFGKQVQNATLQKRQLEKRETLEKIKSLKNKRKHNEIDHSEFNVGVEEEVEGKRFDRGRPNGKRAAKNAKYGQGGMKRFKRKNDATSSADVSGFSSRKMKGKTNRPGKSRRARRF
B3: Sda1 (endogenous) (protein, UniProt P53313 1-767)
chain: MGRRSRAAMLPTNIILLQNLVKRDPESYQEEFLQQYAHYESLRDIFMLNGLAGGDSAAATNGLDVGNGSSTMAGTNGTTMSTSTSQLIELVGFVSQVCSCFPRETANFPSELKQLLLEHHKSLPFELKEKILSCLTMLRNKDVITAEELIQSLFPLLVAYSSHGNSLGVNSHAKELRKIIYTNLISLLKSCNTNGKNQKLNKSTQAVCFNLLDQPDSQGIWATKLTRELWRRGIWDDSRTVEIMTQAALHQDVKIVMSGVMFFLDADREREENFEENSEDEDGFDLDALRHKMQVNKKTGRRGKKLENAIKTVKKKKKNGPGAPQGYLNFSAIHLLRDPQGFAEKLFKEHLSGKTKNKFDMEQKISLMQLLSRLIGTHKLIVLGIYTFFLKYLTPKQRDVTRIMSACAQACHDLVPPEVINVMVRKIADEFVSDGVANEVAAAGINTIREICSRAPLAIDEILLQDLVEYKGSKAKGVNMAAKSLIALYRDVAPEMLKKKDRGKNAAMEVQEAKKGGKDSKRPQFGADNSVQGIAGIELLAKWKKEHGEESENEDADANWEVDVDSEEDDVDGEWVTMDSDKEYDVDMEDSDDEKDNAKGKESDSDLELSDDDDEKEVKDEQEDADIDPEAAFREIASTRILTPADFAKLQELRNEESVAKIMGIHKQDKREELVDASTLTGPIKYKQSREERLQKVLEGREGRDKFGSRRGKRDNMRSTTNREKERRKNFVMSIHKRSVRGKQKMSLRDKQKVLRAHITKQKKKGY
B4: Bcl1 (endogenous) (protein, UniProt P53962 1-389)
chain: MASYSLVESNSFGSENWCLKLQPSYKHGLLTGLSNGEIRLLDWSTGKSVQKIKASETAINDMKVIGSDFSAGHLVSSASIDAVKVFDIRTNDRIAQIQNEANSPFISLDSRHGLLACGTELQGIDAAVYIYDIRKWDTPLRSLIDSHHDDVTCIKFHPSDVNILLSGSTDGYTNIYDLKQDEEEDALHQVINYASIHSCGWLSPKRIFTLSHMETFAIHELNDKSDELKEPQPLDFGDVREIWNCDYVVDIYPGLIATGKTQENCGELCLLPFKDEKVDTENGIVIPHAHGDEVVRDIFIPAQHSNMLYSCGEDGCVKIWENKQGPLDIPENFWDYSKKMNVLGDDDREGSINLDEPLIIQKESVSTRPRKEKHKKAKKHSMKSRFKPY
B5: Dbp9 (endogenous) (protein, UniProt Q06218 1-594)
chain: MSYEKKSVEGAYIDDSTTFEAFHLDSRLLQAIKNIGFQYPTLIQSHAIPLALQQKRDIIAKAATGSGKTLAYLIPVIETILEYKKTIDNGEENGTLGIILVPTRELAQQVYNVLEKLVLYCSKDIRTLNISSDMSDSVLSTLLMDQPEIIVGTPGKLLDLLQTKINSISLNELKFLVVDEVDLVLTFGYQDDLNKIGEYLPLKKNLQTFLMSATLNDDIQALKQKFCRSPAILKFNDEEINKNQNKLLQYYVKVSEFDKFLLCYVIFKLNLIKGKTLIFVNNIDRGYRLKLVMEQFGIKSCILNSELPVNSRQHIVDQFNKNVYQLLIATDDTEYIKEEDDEIEEGHNTENQEEKSLEGEPENDKKPSKKKKVQVKKDKEYGVSRGVDFKNVACVLNFDLPTTAKSYVHRVGRTARGGKTGTAISFVVPLKEFGKHKPSMLQTAKKDERILSRIIKQQSKLGLELQPYKFDQKQVEAFRYRMEDGFRAVTQVAIREARVKELKQELLASEKLKRHFEENPKELQSLRHDKELHPARVQQHLKRVPDYLLPESARGNGTKVKFVPFHNAKKRHSHKKGRVSKPKNGKVDPLKNFK
B6: Reh1 (endogenous) (protein, UniProt Q06709 1-432)
chain: MSSTFFTCNCCVIQFKTSDLQRYHMKTEWHRYNLKRRIANLPPIGAEQFAEKLQISEKEQAENQVDEFGFPVLKPVMNQSNALPQKQKKPIKSKRGRKVGTNLLKRKDRDIAKEKQNRSVSPSGSISSQLSNLTVGTENTNTDYGEDTVSEYGFTSDSNYEYATSDEELDIADKPSDKENEKITITECIYCGKDNKEVERNVKHMFSEHGLFIPERSYLIDLNGLLEFLIKMIVIDHNCLCCNFHGSGLESIRAHMASKRHCRLPYETKEERQLFAPFYDFTYDDHSISKNLQNDRAITSKLSSVYGAKNDEEDGEVDITLVSSENDINANYTTVSIDESGLELTLPTGARLGHRAGQRYYRQNLPSQPNPNESRRTITAADRRMVSGVTEKQYKKGMKKMQQLEKNAINTQIRREIKRVNFQTHYRDELLQ
B7: Spb4 (endogenous) (protein, UniProt P25808 1-606)
chain: MSKSLEWDNLGFSLLPWIRTGLDVMGFETMTPVQASTIPMLAGNKDVVVDSVTGSGKTAAFVIPVLEKVVKEEANTSKFKKAHFHSLIIAPTRELSRQIESVVLSFLEHYPSDLFPIKCQLLVGTNEATVRDDVSNFLRNRPQILIGTPGRVLDFLQMPAVKTSACSMVVMDEADRLLDMSFIKDTEKILRLLPKQRRTGLFSATMRSAGSDIFKTGLRNPVRITVNSKNQAPSSLKLNYCVVNPAEKLQLLVSILNNYKFKKCIVYFPTCVSVSYFYSFIQYLGKRNILVNEVEIFSLHGKLQTSARTKTLTAFTDSLSNSVLFTTDVAARGIDIPDVDLVIQLDPPTNTDMFMHRCGRTGRANRVGKAITFLNEGREEDFIPFMQVKNVELEELDLEVKGITTNFYEDFRNWILEDRDRFDKGVKAYVAFIKYYSNHSATSIFRLQSLDYVGIAKLYGLFRLPRMPEITKYLATEKQEGIFPGNWLVDPPVNMDEYKYKDKKREKERQETLKNISLINDKKKLKSELKKKNLAWSDKTLTKERKLERKEKMSLKRKAIEEELKAEELDENAEEERIKEDWKEIVLQNKRKKVSSKAIQGNFDDL
B8: Rrp15 (endogenous) (protein, UniProt Q06511 1-250)
chain: MGSKHRVDTKDKKRTRKNAEFGREKRNSGNQELSNEPEKDTIMEGDEAEEDEQNSSSDESSKIIDNEQSDAEEDDDEEEEDDDFPRKKKSKNSKHDDGSTGFSAAVNAILSSHLKAYDRKDPIMARNKKVLKQSESEKLEYKAKKALLAEKKKLLGKARKTDIIPIASGEDRSENIRKVLEKETALRKIAQKGAVKLFNAILATQVKTEKEVSENLSEIKNKEEKKELITEVSKEKFLDLVKAAAGSDNE
B9: Rei1 (endogenous) (protein, UniProt P38344 1-393)
chain: MSSSGVYTCNSCVLTFDSSDEQRAHMKSDWHRYNLKRRVAQLPPISFETFDSKVSAAAASTSKSAEKEKPVTKKELKRREKQALLEKKKKLLEIARANMLENMQKSQEGNTPDLSKLSLQENEENKEKEEPKKEEPEQLTEEEMAERVMQEKLRNRVDIPLEQCLFCEHNKHFKDVEENLEHMFRTHGFYIPEQKYLVDKIGLVKYMSEKIGLGNICIVCNYQGRTLTAVRQHMLAKRHCKIPYESEDERLEISEFYDFTSSYANFNSNTTPDNEDDWEDVGSDEAGSDDEDLPQEYLYNDGIELHLPTGIKVGHRSLQRYYKQDLKPEVILTEGQGTLVAAETRSFLPAFDKKGVQTQQRVWQTERFDKKRLDKRSAKFVNNQPHYRDQLLQ

One test concerns the target T1, Bcl1-TurboID (S. cerevisiae). The test can be described thus: proximity labelling; TurboID-fused bait expressed from a centromeric CUP1-promoter plasmid in S. cerevisiae YDK11-5A; 500 μM copper sulphate and 500 μM biotin for 1 h at 30°C; biotinylated proteins purified on streptavidin agarose and identified by LC-MS/MS; enrichment against the GFP-TurboID and NLS-GFP-TurboID type controls.
Regarding B1, the binding result is on record as “binds”.

For the molecule B2, the binding result was “binds”.

A further test addresses TurboID-Rpl1b (S. cerevisiae) (UniProt P0CX44). The description is as above.
Regarding B3, the binding result is “binds”.

Turning to B4, the binding result is recorded as “binds”.

The next test addresses Rpl3-TurboID (S. cerevisiae) (UniProt P14126). The test is described as above.
Take B5: the binding result is “binds”.

B6: the binding entry was “binds”.

Turning to B7, the binding entry was “binds”.

Regarding B8, the binding entry is “binds”.

Regarding B9, the binding entry was “binds”.
